These are literature values, as cited in US8936808B1, “Opioid agonist/opioid antagonist/acetaminophen combinations” (Purdue Pharma L.P., priority 1997, dated 2015).

Each structure is given as a SMILES string. Structures can show the parent of a compound that is named as a salt.

The conditions of this series: hydrochloride salt; cited from earlier work.

For the compound `O=C1CC[C@@]2(O)[C@H]3Cc4ccc(O)c5c4[C@@]2(CCN3CC2CC2)[C@H]1O5` [hydrochloride salt of naltrexone, naltrexone hydrochloride], the solubility in water entry is “about 100 mg/cc”.
